Measurements as given in paper PMC11192394.
These are yes or no findings as the source states them, for the method shown.

Assays:
[1] = molecular target: T1, Rrp1 DNA translocase (S. pombe) (UniProt O13762); test: two-hybrid; Gal4-based Matchmaker Two-Hybrid System 3 (Clontech); fusions to GAL4 AD (pGADT7) and GAL4 DBD (pGBKT7) in S. cerevisiae AH109; selected on SD DO-2, spotted on high stringency SD DO-4 (without Leu, Trp, His, Ade); 3-5 days at 28°C
T1 sequence: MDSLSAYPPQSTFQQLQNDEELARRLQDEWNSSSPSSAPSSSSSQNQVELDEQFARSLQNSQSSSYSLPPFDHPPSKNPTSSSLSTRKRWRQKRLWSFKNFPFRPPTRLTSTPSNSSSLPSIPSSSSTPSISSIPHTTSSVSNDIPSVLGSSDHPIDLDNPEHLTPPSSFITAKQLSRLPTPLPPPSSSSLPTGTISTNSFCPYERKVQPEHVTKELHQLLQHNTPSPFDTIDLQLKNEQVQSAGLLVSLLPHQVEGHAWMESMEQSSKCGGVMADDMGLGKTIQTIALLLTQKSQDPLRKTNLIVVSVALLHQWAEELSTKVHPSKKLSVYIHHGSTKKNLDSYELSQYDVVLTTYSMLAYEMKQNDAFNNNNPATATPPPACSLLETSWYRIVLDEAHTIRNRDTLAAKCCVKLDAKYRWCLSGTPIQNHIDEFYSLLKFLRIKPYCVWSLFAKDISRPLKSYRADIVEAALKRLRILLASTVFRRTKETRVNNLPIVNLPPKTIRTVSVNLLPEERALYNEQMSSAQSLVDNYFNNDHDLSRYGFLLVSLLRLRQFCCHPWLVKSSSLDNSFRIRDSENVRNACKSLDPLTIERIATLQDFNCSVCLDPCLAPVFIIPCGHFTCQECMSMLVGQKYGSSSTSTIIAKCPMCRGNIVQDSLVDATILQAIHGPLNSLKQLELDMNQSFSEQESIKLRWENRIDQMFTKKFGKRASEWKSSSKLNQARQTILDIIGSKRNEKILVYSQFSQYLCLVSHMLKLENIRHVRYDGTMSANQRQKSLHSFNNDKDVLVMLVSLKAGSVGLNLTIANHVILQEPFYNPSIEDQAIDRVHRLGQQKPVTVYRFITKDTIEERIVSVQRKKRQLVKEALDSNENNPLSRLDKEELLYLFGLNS

[2] = molecular target: T2, Rrp2 DNA translocase (S. pombe) (UniProt O60177); test: as above
T2 sequence: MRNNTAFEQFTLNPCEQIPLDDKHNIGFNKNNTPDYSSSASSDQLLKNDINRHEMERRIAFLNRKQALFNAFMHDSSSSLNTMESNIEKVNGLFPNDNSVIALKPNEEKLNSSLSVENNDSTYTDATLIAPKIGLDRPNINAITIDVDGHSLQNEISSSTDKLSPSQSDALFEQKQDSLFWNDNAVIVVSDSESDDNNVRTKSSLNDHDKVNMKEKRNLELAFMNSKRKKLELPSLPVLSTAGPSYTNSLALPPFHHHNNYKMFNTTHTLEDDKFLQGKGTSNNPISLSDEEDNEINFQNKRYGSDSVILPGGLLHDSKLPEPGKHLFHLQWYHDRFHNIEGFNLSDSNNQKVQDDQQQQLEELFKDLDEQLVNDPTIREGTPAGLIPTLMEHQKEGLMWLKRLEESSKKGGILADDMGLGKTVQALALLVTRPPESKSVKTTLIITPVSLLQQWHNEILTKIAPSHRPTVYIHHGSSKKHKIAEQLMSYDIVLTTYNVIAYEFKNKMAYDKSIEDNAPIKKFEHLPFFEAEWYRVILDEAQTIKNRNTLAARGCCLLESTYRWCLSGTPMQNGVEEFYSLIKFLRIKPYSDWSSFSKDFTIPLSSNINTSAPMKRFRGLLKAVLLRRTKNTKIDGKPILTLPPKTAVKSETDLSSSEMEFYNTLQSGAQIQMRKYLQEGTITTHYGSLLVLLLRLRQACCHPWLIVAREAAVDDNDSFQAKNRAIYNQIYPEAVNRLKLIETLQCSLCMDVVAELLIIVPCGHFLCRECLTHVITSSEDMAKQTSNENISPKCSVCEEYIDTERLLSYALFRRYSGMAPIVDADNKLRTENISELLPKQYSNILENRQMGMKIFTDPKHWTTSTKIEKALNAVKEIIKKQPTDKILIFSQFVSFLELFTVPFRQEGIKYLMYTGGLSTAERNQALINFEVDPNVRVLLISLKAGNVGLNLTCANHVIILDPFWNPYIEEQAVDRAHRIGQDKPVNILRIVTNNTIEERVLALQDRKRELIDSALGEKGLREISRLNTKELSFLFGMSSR

B1: Srs2 helicase (enzyme, UniProt Q10213 1-887)
chain: METKSSYLKFLNEEQRISVQSPHKYTQILAGPGSGKTRVLTARVAYLLQKNHIAAEDLIIATFTNKAANEIKLRIEAILGNSEASKLISGTFHSIAYKYLVKYGKHIGLSSNWLIADRNDTQAIMKRLLDSLKKAKNPIASGIRGQELTPQNALNRITKLKSNGLLVKPGMDQLSLINGLEEPPKELQSHQSVELYRLYQTSLWKNNLADFDDLLLNFILLLQKQPDCVRNIKHILIDEFQDTSKIQYFLVKLLALQNSDITIVGDPDQSIYGFRSAEIRNLNQMSEDFEGTQVLHLERNYRSAKPILELALSIISQDKSRPKKGLKSNHISSLKPHYRLFETNNKESYWIAREIKRIVGSCPELIFYNDIAILVRSSSLTRSLEHALSELGVPYRMVGVNKFFDREEIRDLIAYLRVLANKDSTSLIRVINVPPRNIGKTKIDRIIFESERRGLTFWQTLNEVKNENILLSQRNDKSFLKSLKSFLCSISKLENRYLSNGHSATLSDLLLGILSEIKYYEYLVRKNKETVEEKWENVMELVQQSDNISCIFYELDYKISTIVLLQNFLTQIALVNEEQKEGESQKVTISTLHAAKGLEWPVVFLPCLCENIIPHSRSDDLDEERRLLYVGATRAQALLYLSSFKSVTGMFADMQNSDNVQDVSPFLKGEEMKRWVMESEIVFNEKIASEIGTILGRKSYGKITNLSGIGSNANHNGTKFENLGFQCCRVLAEAELKKRERVKSVNDYNKDETNFRKHNAKRSKTDIRSWFEKKQPIDSDVEISEPSRSASIMVANKDLNDRSFETVNRIVSTRASTTNASFMSSVRQNLGRGPSTKDQVINRTLREGHQDVVQHTDLNQSNTKVASARPAGSRKRLGVRLRVSRML
With B1 the binding [1] was “no binding” and the binding [2] was “no binding”.
